Measurements: patent publication US20240217960A1, “TRIAZINE DERIVATIVE AS COVALENT INHIBITORS OF PI3K” (UNIVERSITÄT BASEL, priority 2021, published 2024)

Sequences of proteins named here, by UniProt entry; tags and fusion partners are left off.
UniProt P42336, whole entry: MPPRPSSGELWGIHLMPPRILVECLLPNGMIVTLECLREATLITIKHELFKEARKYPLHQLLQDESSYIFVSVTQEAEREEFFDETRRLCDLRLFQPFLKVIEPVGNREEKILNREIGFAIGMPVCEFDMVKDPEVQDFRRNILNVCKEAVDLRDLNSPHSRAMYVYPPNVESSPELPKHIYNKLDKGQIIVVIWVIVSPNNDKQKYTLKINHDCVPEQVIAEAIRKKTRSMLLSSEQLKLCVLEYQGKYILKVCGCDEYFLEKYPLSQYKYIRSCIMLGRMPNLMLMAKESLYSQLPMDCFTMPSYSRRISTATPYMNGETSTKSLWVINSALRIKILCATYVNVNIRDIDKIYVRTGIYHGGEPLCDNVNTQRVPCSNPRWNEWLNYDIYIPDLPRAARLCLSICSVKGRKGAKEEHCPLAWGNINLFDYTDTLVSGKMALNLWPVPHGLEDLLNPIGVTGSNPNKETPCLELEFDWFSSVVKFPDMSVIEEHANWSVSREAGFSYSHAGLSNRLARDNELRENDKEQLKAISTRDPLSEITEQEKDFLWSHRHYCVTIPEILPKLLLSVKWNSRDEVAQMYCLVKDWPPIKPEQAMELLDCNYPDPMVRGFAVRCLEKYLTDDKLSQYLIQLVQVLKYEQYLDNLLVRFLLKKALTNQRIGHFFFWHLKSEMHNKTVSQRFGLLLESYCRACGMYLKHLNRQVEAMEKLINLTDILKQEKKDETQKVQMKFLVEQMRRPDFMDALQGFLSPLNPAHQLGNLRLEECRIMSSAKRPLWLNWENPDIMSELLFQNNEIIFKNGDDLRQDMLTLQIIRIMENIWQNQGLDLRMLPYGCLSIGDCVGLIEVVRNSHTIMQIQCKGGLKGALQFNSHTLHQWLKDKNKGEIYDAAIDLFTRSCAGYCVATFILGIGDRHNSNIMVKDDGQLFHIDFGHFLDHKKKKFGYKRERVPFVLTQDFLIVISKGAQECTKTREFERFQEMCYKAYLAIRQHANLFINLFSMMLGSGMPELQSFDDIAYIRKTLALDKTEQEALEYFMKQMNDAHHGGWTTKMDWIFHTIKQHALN
UniProt P27986, whole entry partner: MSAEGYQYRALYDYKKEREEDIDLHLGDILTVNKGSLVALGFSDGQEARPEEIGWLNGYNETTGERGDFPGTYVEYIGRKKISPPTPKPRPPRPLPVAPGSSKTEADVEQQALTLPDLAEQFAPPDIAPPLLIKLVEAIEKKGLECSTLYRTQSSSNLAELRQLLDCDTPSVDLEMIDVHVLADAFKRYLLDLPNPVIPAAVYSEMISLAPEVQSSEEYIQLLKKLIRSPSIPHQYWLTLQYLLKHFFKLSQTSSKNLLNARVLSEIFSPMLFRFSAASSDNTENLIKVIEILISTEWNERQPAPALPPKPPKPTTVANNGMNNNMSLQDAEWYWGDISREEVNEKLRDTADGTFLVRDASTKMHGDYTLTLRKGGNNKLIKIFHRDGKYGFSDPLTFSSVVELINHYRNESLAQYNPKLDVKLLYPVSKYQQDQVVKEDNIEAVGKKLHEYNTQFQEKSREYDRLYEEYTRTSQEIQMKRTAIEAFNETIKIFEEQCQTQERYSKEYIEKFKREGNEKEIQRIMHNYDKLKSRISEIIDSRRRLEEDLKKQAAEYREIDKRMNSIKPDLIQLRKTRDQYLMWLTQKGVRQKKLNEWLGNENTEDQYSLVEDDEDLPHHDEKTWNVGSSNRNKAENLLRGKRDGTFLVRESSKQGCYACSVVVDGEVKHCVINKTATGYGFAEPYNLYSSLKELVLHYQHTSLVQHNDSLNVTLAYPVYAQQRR

Columns and labels:
[1] = Intrinsic reactivity of the inhibitors (kchem) with βME measured with HPLC; type: physicochemical; conditions: 1 mM inhibitor + 600 mM βME, n = 3
[2] = target: p110α (PI3Kα) (Homo sapiens, UniProt P42336); assay: Determination of kinetic constants (kinact, Ki) for p110α by LanthaScreen Technology; type: binding
[3] = system: pSer473 of PKB/Akt in SKOV3 cells; assay: In Cell Western cellular PI3K signaling and IC50 determination; type: cell-based; conditions: read-out: IC50 pPKB (S473) SKOV3, 2 or 3 independent measurements
Description: Protein phosphorylation was detected as follows: pSer473 of PKB/Akt with rabbit polyclonal antibody from Cell Signaling Technology (CST) (#4058) by In-Cell Western assays, where 1.2×10^4 SKOV3 cells/well in 96-well plates were plated (Cell Carrier, PerkinElmer) for 24 hours (37° C., 5% CO2), as described in Ref. ^25.

[4] = Experimental LogD; type: physicochemical; conditions: 3 independent measurements

Question: Which “kchem (intrinsic reactivity of the inhibitors)” value [1] does the source give for `C=CC(=O)N1CCC(CN(C)CC(=O)N2CCN(c3nc(-c4cnc(N)nc4C(F)F)nc(N4CCOCC4)n3)CC2)CC1` here?
Answer: 0.000267 M⁻¹ s⁻¹

Question: What about the “kinact/Ki PI3Kα” value [2] of the same compound?
Answer: 6.35e-06 nM⁻¹ s⁻¹

Question: What about the “kinact PI3Kα” value ([2]; maximum potential rate of covalent bond formation, global fitting with KinTek) of the same compound?
Answer: 0.000214 s⁻¹

Question: What about the Ki ([2]; read-out: Ki PI3Kα, dissociation constant of the first reversible binding, global fitting with KinTek) of the same compound?
Answer: 33.6 nM

Question: What about the IC50 [3] of the same compound?
Answer: 41 nM

Question: And the Experimental LogD, pH 7.4 [4]?
Answer: 1.79

The match of structure and compound is tentative.
